PubChem BioAssay AID504744, Drosophila RNAi Screening Center, 2011
In all, the deposit lists about 23,000 reagents; below is a random part of those with a known target gene and a result. In the full data, 98 (0.43%) are marked active. 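Only hit calls are given; the phospho-dAkt signals, z-scores and hit direction were not deposited.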 Reagent sequences are not shown.

Purpose: 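Find genes whose loss alters insulin-driven dAkt phosphorylation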 (primary screen)
Cell system: Drosophila Kc167 cells
Reagents: long dsRNA against Drosophila genes, 250 ng dsRNA per well of a 384-well plate
Time to read-out: 3 days of knock-down, then overnight serum-free starvation before stimulation
Challenge: bovine insulin at 387 nM for 10 minutes after 12 h without serum
Measurement: 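In-cell antibody fluorescence for phospho-dAkt in each well over DNA-dye signal, with log2 residuals expressed as z-scores adjusted for cell count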
Hit rule: 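Under insulin, a gene counts as a hit if the average z-score of two replicates lies above 2.5 or below -2.5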

For CG10026 [DRSC02010] the deposit lists inactive. Silencing of CG17005 [DRSC02556] gave: inactive. After knock-down of Arpc2 [DRSC02113], the screen gave inactive. CG3795 [DRSC18593] showed inactive. For fs(1)M3 [DRSC18381], the entry reads inactive. After knock-down of CG32453 [DRSC21673], the record shows inactive.

With knock-down of rl [DRSC07833], the screen gave inactive. Against rl [DRSC20742] the deposit lists inactive. With knock-down of rl [DRSC21814], the record shows inactive. For Sirt6 [DRSC16010] the deposit lists inactive. Knock-down of beat-IIIc [DRSC02438] resulted in: inactive. For beat-IIIc [DRSC02949], the values are inactive.

Against CycD [DRSC20233], the entry reads inactive. With knock-down of Vml [DRSC17695], the record shows inactive. Vml [DRSC18529] showed inactive. For ergic53 [DRSC11389], the entry reads inactive. Against qkr58E-1 [DRSC04709], the values are inactive. Silencing of ATPsynG [DRSC02928] gave: inactive.

After knock-down of Acp53Ea [DRSC05916], the record shows inactive. Spn28B [DRSC02982] showed inactive. Depletion of Teh2 [DRSC08458] gave: inactive. After knock-down of CG13454 [DRSC10001] the results were inactive. After knock-down of sv [DRSC17221], the record shows inactive.

Records above whose target name starts with C or c:
CG10026 [DRSC02010] → Call = inactive
CG17005 [DRSC02556] → Call = inactive
CG3795 [DRSC18593] → Call = inactive
CG32453 [DRSC21673] → Call = inactive
CycD [DRSC20233] → Call = inactive
CG13454 [DRSC10001] → Call = inactive
